Laboratory results taken from publication PMC4685012 (Bioorganic & medicinal chemistry, 2015).

Key:
A549 cells = test: Cell viability; type: cell-based; conditions: Homo sapiens, A549, 72 h, read-out: Anti-proliferative activity IC50, A549
MCF-7 cells = test: Cell viability; type: cell-based; conditions: Homo sapiens, MCF7, 72 h, read-out: Anti-proliferative activity IC50, MCF-7

With O=C(CCCCCCC(=O)Nc1ccccc1)NO [SAHA, suberoylanilide hydroxamic acid, reference compound] as the compound, how does the IC50 (A549 cells) read?
Its IC50 is 5 ± 0.24 µM.

What about the IC50 (MCF-7 cells) of the same compound?
Its IC50 is 3.27 ± 0.05 µM.
